Results: patent publication US5500413 (dated 1996)
Square brackets hold non-standard residues; d marks the D form. * marks the point of attachment. Boc = CC(C)(C)OC(=O)*; Acm = CC(=O)NC*; Mpa = O=C(O)CCS

Test: general procedure: solution-phase peptide synthesis; p-nitrophenyl active esters; azide coupling (isoamylnitrite); DCC/HOBt
Conditions: diacetate

Row | Substance | step yield | crude HPLC purity (coupling step, HPLC)
1 | Boc-QNC(Acm)P-OH | 78.5% | –
2 | Mpa(Acm)-Tyr-Phe-Gln-Asn-Cys(Acm)-Pro-D-Arg(HCl)-Gly-NH2 | 84.9% | 94.5%
3 | [Mpa](Acm)YFQNC(Acm)P-OH | 85% | –
